# Source: PubChem BioAssay AID652054 (National Center for Advancing Translational Sciences (NCATS), 2013)
# Amino acid sequences for entries named in this document (tags omitted).
# UniProt P35462, whole entry, looked up: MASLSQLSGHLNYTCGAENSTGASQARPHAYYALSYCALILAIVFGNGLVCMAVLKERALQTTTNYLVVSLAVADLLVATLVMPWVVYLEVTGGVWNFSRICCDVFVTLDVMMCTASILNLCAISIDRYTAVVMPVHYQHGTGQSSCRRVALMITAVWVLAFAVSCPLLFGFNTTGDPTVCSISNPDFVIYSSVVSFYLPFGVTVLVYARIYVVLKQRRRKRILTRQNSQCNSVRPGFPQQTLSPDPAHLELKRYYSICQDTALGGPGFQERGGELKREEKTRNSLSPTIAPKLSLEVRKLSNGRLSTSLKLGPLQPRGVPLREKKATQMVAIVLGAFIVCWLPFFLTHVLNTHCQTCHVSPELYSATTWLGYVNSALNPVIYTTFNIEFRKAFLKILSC
# The whole screen tested about 360,000 compounds, of which about 9,100 (2.5%) were called active. Inconclusive results, whose numbers are uncertain, are shown with a selection of clear calls. No stated cut-off is given here; in the data, active means max response below about -50%; inconclusive means no clear call, values can overlap the other calls; inactive means above that.
# Target: D(3) dopamine receptor (Homo sapiens) (UniProt P35462)
# Experiment: qHTS of D3 Dopamine Receptor Antagonist: qHTS
# Conditions: D3R cells, DiscoveRx beta-arrestin luminescence, antagonist mode; active compounds read low
# Summary of the method: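 Cells plated overnight at 1500 cells/well, then exposed to library compounds with dopamine controls for 90 minutes at 37 degrees C. DiscoveRx reagent added for 30–60 minutes at room temperature; luminescence read, quantitative HTS format.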
# On the % scale 0 is the no-effect control and ±100 the full control effect.
row,Structure (SMILES),"max response, negative = inhibition"
1,O=C(c1n[nH]c(=O)c2ccccc12)N1CCOCC1,active: -59.3%
2,COc1cc2[nH]c(=O)n(CCC(=O)N3CCN(Cc4ccccc4)CC3)c(=O)c2cc1OC,inactive: 6.74%
3,O=C(NCC1CCCO1)c1ccc2c(c1)N(Cc1ccc(F)cc1)CCS2 (stereo not drawn),inactive: -12.5%
4,CCC(C)c1ccccc1OCCCN(C)Cc1ccccc1 (stereo not drawn),active: -60.4%
5,CCOc1ccc(C(=O)NC(=S)Nc2ccc(N3CCC(C)CC3)cc2)cc1[N+](=O)[O-],inconclusive: -46.9%
6,CCc1c(-c2ccc(F)cc2)ncn1Cc1cccc(-c2ccccc2)c1,inactive: -10.3%
7,CCC(CO)Oc1cc(NCc2ccccc2)c2ncn(C(C)C)c2c1 (stereo not drawn),inactive: 4.56%
8,O=C(Nc1cccc(S(=O)(=O)N2CCOCC2)c1)c1ccc2ccccc2n1,inactive: -23.9%
9,Brc1cccc(CNCCCN2CCOCC2)c1,inconclusive: -32.6%
10,O=S(=O)(Nc1cccnc1)c1ccc(Cl)c(C(F)(F)F)c1,active: -51.3%
11,CCOc1cc(-c2nc(C)c(C(C)=O)n2O)ccc1OCC(=O)Nc1ccccc1,inconclusive: -34.3%
12,OC1CC(c2ccco2)NC2(CCCCC2)C1 (stereo not drawn),inconclusive: -42.4%
13,C[C@@]12C(=O)N(CCc3c[nH]c4ccccc34)CC(=O)N1[C@H]1c3ccccc3OC[C@@H]1[C@@H]2c1ccccc1,inconclusive: -45.6%
14,CNC(=O)NC1CCCCc2sccc21 (stereo not drawn),inconclusive: -31.5%
15,O=C(Oc1ccc(Br)cc1C(=S)N1CCOCC1)c1ccc([N+](=O)[O-])cc1[N+](=O)[O-],inconclusive: -47%
16,CCOC(=O)C1=C(C)Nc2nc3ccccc3n2C1c1ccncc1 (stereo not drawn),inconclusive: -37.4%
17,O=C(Nc1ccc2c(c1)OCCO2)C1c2ccccc2C(=O)N2CCc3ccccc3C12 (stereo not drawn),inconclusive: -32%
18,CN1CCN(C(=O)c2cn(-c3ccccc3)nc2-c2cccnc2)CC1,inconclusive: -41.3%
19,c1ccc(-n2cccc2CNC2CCCCC2)cc1,inconclusive: -34.8%
20,O=S(=O)(c1ccc(Br)s1)N1CCN(c2ncccn2)CC1,active: -79%
21,CC(C)C(O)(C#CCN1CCCCC1)c1ccccc1 (stereo not drawn),active: -71.4%
22,c1ccc(COc2ccccc2CNC2CCCC2)cc1,inconclusive: -32.3%

row,Structure (SMILES),"max response, negative = inhibition"
1,CC(C)C[C@H]1C(=O)N2CCC[C@H]2[C@]2(O)O[C@](NC(=O)C3C=C4c5cccc6[nH]c(Br)c(c56)C[C@H]4N(C)C3)(C(C)C)C(=O)N12 (stereo partly drawn),active: -55.1%
2,O=C(c1ccccc1)N1CCN(CC2CC=CCC2)CC1 (stereo not drawn),active: -60.2%
3,Cc1nnc(Sc2cc(NCCCO)c([N+](=O)[O-])c3nonc23)s1,active: -96.8%
4,CCCCC(=O)Nc1nc(C)c(-c2csc(Nc3ccccc3OC)n2)s1,inactive: 0.601%
5,Cc1ccnn1CCC(=O)N1CCCC(N2CCN(c3cccc(Cl)c3)CC2)C1 (stereo not drawn),inactive: -3.82%
6,COCOCCn1cc(CN2CCS(=O)(=O)N(Cc3ccc(-c4ccc(Cl)cc4)cc3)C(CC(C)C)C2=O)nn1 (stereo not drawn),inconclusive: -44.2%
7,COc1ccc(OC)c(N/C=C/C(=O)c2ccccc2)c1,inactive: -22.3%
8,C=C(C)C1CC=C(CN2CCC(C(=O)OCC)CC2)CC1 (stereo not drawn),active: -60.6%
9,COc1ccc(OC)c(CN2C(=O)c3ccccc3C2c2nnnn2-c2ccc3c(c2)OCCO3)c1 (stereo not drawn),inconclusive: -47.9%
10,CNC(=O)C[C@H]1C(=O)N(CCc2ccccc2)C[C@@H]1C,inconclusive: -39.4%
11,CC1CN(CCOCCOc2ccccc2-c2ccccc2)CC(C)O1 (stereo not drawn),inactive: -21.1%
12,Cc1[nH]n2c(=O)c3c(nc2c1-c1ccccc1)CCC3,inconclusive: -36.4%
13,COC(=O)[C@]1(Cc2ccccc2)N[C@H](CN(C)C(C)=O)[C@@H]2C(=O)N(Cc3ccccc3)C(=O)[C@@H]21,active: -53%
14,O=S(c1ccc2ccccc2c1)c1cnns1 (stereo not drawn),active: -55%
15,COc1cc(OC)cc(-c2c(-c3ccc(F)cc3)c3cc(-c4ccc5[nH]ccc5c4)ccc3n2C)c1,inactive: 0%
16,C[C@@H](C(=O)O)[C@H]1C[C@]1(C)[C@H](NC(=O)OCc1ccccc1)c1ccccc1,inconclusive: -35.7%
17,O=C1Nc2ccccc2C1Cc1ccccc1 (stereo not drawn),inactive: 1.69%
18,O=C(NCc1ccc(C(F)(F)F)cc1)C1CC(c2cccc(F)c2)=NO1 (stereo not drawn),inconclusive: -40.1%
19,Cn1c(SCC(=O)NC2CCCC2)nnc1-c1ccc(S(=O)(=O)N2CCOCC2)cc1,inconclusive: -41.9%
20,CN(C)CCNC(=O)c1cc2c(s1)-c1ccccc1OC2,active: -81.4%
21,CC1=C(SCc2ccccc2)C(=O)c2ccccc2C1=O,active: -89.4%
22,COc1ccccc1/C=C/C(=O)NCCC1=CCCCC1,inconclusive: -35.8%

# Filtered by structure, the entries above with a carbonyl joined to an NH by a bond outside any ring.
row,Structure (SMILES),"max response, negative = inhibition"
3,O=C(NCC1CCCO1)c1ccc2c(c1)N(Cc1ccc(F)cc1)CCS2 (stereo not drawn),inactive: -12.5%
5,CCOc1ccc(C(=O)NC(=S)Nc2ccc(N3CCC(C)CC3)cc2)cc1[N+](=O)[O-],inconclusive: -46.9%
8,O=C(Nc1cccc(S(=O)(=O)N2CCOCC2)c1)c1ccc2ccccc2n1,inactive: -23.9%
11,CCOc1cc(-c2nc(C)c(C(C)=O)n2O)ccc1OCC(=O)Nc1ccccc1,inconclusive: -34.3%
14,CNC(=O)NC1CCCCc2sccc21 (stereo not drawn),inconclusive: -31.5%
17,O=C(Nc1ccc2c(c1)OCCO2)C1c2ccccc2C(=O)N2CCc3ccccc3C12 (stereo not drawn),inconclusive: -32%
1,CC(C)C[C@H]1C(=O)N2CCC[C@H]2[C@]2(O)O[C@](NC(=O)C3C=C4c5cccc6[nH]c(Br)c(c56)C[C@H]4N(C)C3)(C(C)C)C(=O)N12 (stereo partly drawn),active: -55.1%
4,CCCCC(=O)Nc1nc(C)c(-c2csc(Nc3ccccc3OC)n2)s1,inactive: 0.601%
10,CNC(=O)C[C@H]1C(=O)N(CCc2ccccc2)C[C@@H]1C,inconclusive: -39.4%
16,C[C@@H](C(=O)O)[C@H]1C[C@]1(C)[C@H](NC(=O)OCc1ccccc1)c1ccccc1,inconclusive: -35.7%
18,O=C(NCc1ccc(C(F)(F)F)cc1)C1CC(c2cccc(F)c2)=NO1 (stereo not drawn),inconclusive: -40.1%
19,Cn1c(SCC(=O)NC2CCCC2)nnc1-c1ccc(S(=O)(=O)N2CCOCC2)cc1,inconclusive: -41.9%
20,CN(C)CCNC(=O)c1cc2c(s1)-c1ccccc1OC2,active: -81.4%
22,COc1ccccc1/C=C/C(=O)NCCC1=CCCCC1,inconclusive: -35.8%

# 3 compounds from above, arranged by length of the SMILES, rising:
row,Structure (SMILES),"max response, negative = inhibition"
8,C=C(C)C1CC=C(CN2CCC(C(=O)OCC)CC2)CC1 (stereo not drawn),active: -60.6%
5,Cc1ccnn1CCC(=O)N1CCCC(N2CCN(c3cccc(Cl)c3)CC2)C1 (stereo not drawn),inactive: -3.82%
13,COC(=O)[C@]1(Cc2ccccc2)N[C@H](CN(C)C(C)=O)[C@@H]2C(=O)N(Cc3ccccc3)C(=O)[C@@H]21,active: -53%

# (next part)

row,Structure (SMILES),"max response, negative = inhibition"
1,Cc1ccc(NC(=O)c2ccc(-n3cccn3)c([N+](=O)[O-])c2)cc1C,inconclusive: -30.7%
2,CCC(=O)Nc1ccccc1N1CCN(c2ccc(F)cc2)CC1,inconclusive: -38.2%
3,COc1ccc(CCC(=O)N2c3ccccc3N=C(c3ccc4c(c3)OCO4)C2C(=O)NCc2ccccc2)cc1 (stereo not drawn),inconclusive: -32.8%
4,Cc1noc(/C=C/c2ccco2)c1S(=O)(=O)N1CCC(C(=O)N2CCc3ccccc3C2)CC1,inconclusive: -36%
5,O=C(NC1CCCC1)C1C(c2ccc(C(F)(F)F)cc2)=Nc2ccccc2N1C(=O)c1ccccc1 (stereo not drawn),inconclusive: -31.1%
6,C=CCNC(=S)N/N=C/c1ccc(N(CC)Cc2ccccc2)cc1,inconclusive: -35.1%
7,COc1ccc(Br)cc1/C=C/C(=O)OCC(=O)NCCc1ccc(S(N)(=O)=O)cc1,inconclusive: -37.3%
8,C=CCn1c(SCC(=O)Nc2ccccc2F)nc2ccccc2c1=O,inactive: 2.93%
9,Cc1ccc([N+](=O)[O-])c(OCCN2CCCCCC2)c1,active: -90.1%
10,COc1cc(NC(=O)c2nccnc2C(=O)O)cc(OC)c1,inconclusive: -34.1%
11,COc1cc2c(cc1NC(=O)C(C)Sc1ccc(C)cc1)oc1ccccc12 (stereo not drawn),inactive: 8.67%
12,Cc1cc(C)cc(NC(=O)c2cc(C)n(Cc3cccs3)c2C)c1,inconclusive: -36.6%
13,Cc1nn(CC(=O)N(C)c2c(N)n(Cc3ccccc3)c(=O)[nH]c2=O)c(C)c1[N+](=O)[O-],inconclusive: -31.7%
14,COc1ccc(C(CNC(=O)c2ccc(-c3nc4ccccc4s3)o2)N2CCCC2)cc1 (stereo not drawn),active: -83.4%
15,COC(=O)c1ccc(/C=C/c2c(-c3ccc(OC)cc3)oc3ccccc23)cc1,inactive: 0%
16,FC(F)(F)c1ccc(C2[C@H]3CN(CC4CCCCC4)[C@H](c4ccccc4)C34CC2(c2cccnc2)C4)cc1 (stereo partly drawn),inconclusive: -30.8%
17,Cn1c(-c2ccc(F)cc2)cnc1NCc1ccc(C#N)cc1,active: -73%
18,COCCCNC(=O)CCn1c(=O)c2ccccc2n(CC(=O)Nc2ccccc2C)c1=O,inconclusive: -48%
19,O=C(NCc1ccccc1)C(c1ccccc1F)n1c(=O)c(-c2ccco2)nc2ccccc21 (stereo not drawn),inactive: 0.365%
20,Cc1ccccc1OCCNC(=O)c1ccccc1Sc1ccccc1C#N,inactive: -2.36%
21,CCc1ccc(NC(=O)c2cc(C)nn2-c2ccccc2)cc1,inconclusive: -35.2%
22,COc1ccc(Cc2nc3ccc(C(=O)NCCn4ccnc4C)cc3o2)cc1OC,inactive: -4.32%

row,Structure (SMILES),"max response, negative = inhibition"
1,Cc1cccc(NC(=O)Nc2c(C)n(C)n(-c3ccccc3)c2=O)c1,inconclusive: -32.7%
2,Cc1ccc2c(c1)c(C1=c3ccccc3=NC1=O)c(O)n2C,active: -80.1%
3,Cc1nnc(C)n1/N=C/c1cccc(Oc2ccccc2)c1,inconclusive: -45.5%
4,NC(=O)CC(NC(=O)Cc1cccc2ccccc12)c1ccc(N2CCc3ccccc3C2)c([N+](=O)[O-])c1 (stereo not drawn),inactive: -19.9%
5,OC(CNCC1COc2ccccc2O1)COCc1cccs1 (stereo not drawn),active: -71.5%
6,Cc1ccc(C(=O)OC2CCN(c3ccc([N+](=O)[O-])cc3)CC2)cc1,inconclusive: -40.1%
7,NC(=S)NN=C(c1ccccc1)c1ccccc1,inconclusive: -38.6%
8,CC1CCCN(CCC(=O)Nc2ccc(F)c(F)c2)C1 (stereo not drawn),inconclusive: -33.8%
9,O=S1(=O)CC(N2CCCC2)CN1Cc1cn(Cc2cccc(Cl)c2)nn1 (stereo not drawn),inactive: -21.5%
10,NS(=O)(=O)c1cccnc1Nc1c(Cl)cccc1Cl,inactive: -12%
11,CCOC(=O)c1c(CC(C)C)csc1NC(=O)COC(=O)c1cc(OC)c(OC)cc1[N+](=O)[O-],inactive: 25.1%
12,O=C(C1CC2CCC1C2)N1CCN(Cc2ccc3c(c2)OCO3)CC1 (stereo not drawn),active: -56.2%
13,O=C1CSC(=S)N1Cc1cccnc1,inactive: 0%
14,COc1ccccc1-c1cc(C(=O)N/N=C/c2ccoc2)c2ccccc2n1,active: -50.7%
15,N/C(=N\OC(=O)c1cnn(-c2ccccc2)c1C(F)(F)F)c1cc(C(F)(F)F)cc(C(F)(F)F)c1,inconclusive: -32%
16,O=C(OCN1C(=O)c2ccccc2C1=O)c1ccccc1,inconclusive: -44.7%
17,CCOC(=O)Cc1csc(NC(=O)CN2CCCCC2)n1,active: -54.8%
18,COc1ccccc1N1CCN(CCCn2c(=S)[nH]c3ccccc3c2=O)CC1,active: -109%
19,COC(=O)c1sc(NC(=S)NC(=O)c2ccc(C)cc2)nc1C,inactive: 2.14%
20,Cc1ccc(C(=O)Nc2ccc(C(=O)N3CCCCC3)cc2)o1,inconclusive: -35.3%
21,CC[C@H](C)[C@H]1CNC(=S)N1CC1CCN(CC2CCC(C)CC2)CC1 (stereo partly drawn),active: -104%
22,O=C(CSCc1ccccn1)Nc1ccccc1,inconclusive: -35.9%
